From patent US6534448B1, “Composition and method for acidizing wells and equipment without damaging precipitation” (Halliburton Energy Services, Inc., priority 2000, dated 2003)

How the values were obtained:
[1] = Amounts of electron transfer agents needed to reduce 2500 ppm ferric ion in less than five minutes (Example III); conditions: room temperature; for optimum amount that should be used: 1% thioglycolic acid, 2500 ppm ferric ion; for amount required for the same reduction rate (2500 ppm Fe(III) in 2-3 minutes): Na2MoO4 and KI used together
[2] = Reduction of Fe(III) using various electron donor agents, visual color change (Example VI); conditions: 15% HCl, 20 pounds ammonium molybdate per 1000 gallons, 2500 ppm ferric ion, donor equimolar to 1% thioglycolic acid, room temperature

SMILES | optimum amount that should be used ([1]; 28% HCl) | amount required for the same reduction rate (2500 ppm Fe(III) in 2-3 minutes) ([1]; 28% HCl) | Reduction of Fe(III) [2] | optimum amount that should be used ([1]; 15% HCl)
[I-].[K+] [potassium iodide] | 10 pounds per 1000 gallons of the acid solution | ~20 lbs./Mgal | – | –
OCC(O)CS (centres unmarked) [3-mercapto-1,2-propanediol] | – | – | Yes | –
O=C1O[C@H]([C@H](O)CO)C(O)=C1O [Erythorbic acid, reference compound] | – | – | No | –
O=C(O)CC(S)C(=O)O (centres unmarked) [Thiomalic (mercaptosuccinic) acid] | – | – | Yes | –
[Na+].[Na+].[O]=[Mo](=[O])([O-])[O-] [sodium molybdate crystalline, sodium molybdate] | approximately 28 pounds per 1000 gallons of the acid solution | approximately 30 lbs./Mgal | – | approximately 14 pounds per 1000 gallons of the acid solution
